Laboratory results reported in PubChem BioAssay AID602441 (National Center for Advancing Translational Sciences (NCATS), 2012).
The whole screen tested about 1,300 compounds, of which fewer than 10 were called active. Roughly 9% stayed inconclusive and do not appear here. Calls follow the shape of the dose curve; as a rule, active = well fitted curve in the direction sought with a large enough effect; inconclusive = small, poorly fitted or top-dose-only effect, or another doubt; inactive = no such curve, though single readings can be large or run the other way. This is one part of the list.

Test: qHTS for antagonists of the Thyroid Stimulation Hormone Receptor: Hit Validation in Parental Cell Line; also: 0% is about no effect
Conditions: parental HEK293 cells lacking TSHR, counter-screen; series mostly up to 56.9 µM; activity change, negative = inhibition: at the top concentration
Procedure, shortened: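 Counterscreen in untransfected parental HEK-EM 293 cells. Lysate cAMP displaces cAMP-d2 from cryptate-tagged anti-cAMP antibody, and homogeneous TR-FRET is read at 665 nm with 337 nm excitation after stimulation.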

Structure (SMILES) | activity change, negative = inhibition
O=[N+]([O-])c1cccc(S(=O)(=O)Nc2nc3ccccc3nc2Nc2cccc(S(=O)(=O)N3CCCCC3)c2)c1 | inactive: 1.72%
CCN(CC)C(=O)Cn1c(=O)n(-c2ccccc2)c(=O)c2sccc21 | inactive: 0.869%
O=C(COc1ccc(Cl)cc1)Nc1nc(-c2cccs2)cs1 | inactive: -10%
O=[N+]([O-])c1cc(Br)c(O)c(/C=N/Nc2nnnn2-c2cccc3ccccc23)c1 | inactive: -0.201%
CCOc1cc(/C=C2\SC(=NC)N(C)C2=O)c(Br)cc1OC(C)=O | inactive: 5.71%
Fc1cccc(Cl)c1CNCc1cccnc1 | inactive: 4.37%
Cc1cc(C(C)(C)C)oc1C(=O)N(CC(=O)NC1CCCC1)c1cccc(C(F)(F)F)c1 | inactive: -7.39%
COc1cc(C(=O)N/N=C/c2cn(Cc3ccccc3)c3ccccc23)ccc1O | inactive: -4.29%
O=S(=O)(Nc1cccc(-n2cnnn2)c1)c1ccccc1C(F)(F)F | inactive: 3.18%
Cc1cccc2sc(NC(=O)C3CCN(S(=O)(=O)c4cc([N+](=O)[O-])ccc4Cl)CC3)nc12 | inactive: -7.42%
O=C1OC(CC(=O)N(Cc2nnc(-c3ccc(Cl)cc3)o2)C2CC2)c2ccccc21 (stereo not drawn) | inactive: -9.64%
O=C1NC(=S)SC1=C1CCCCCC1 | inactive: -0.469%
O=C(/C=C/c1cccc(Cl)c1)c1ccc([N+](=O)[O-])o1 | inactive: -2.79%
O=C(Nc1ccncc1)c1ccc2c(c1)C(=O)N(C1CCCCC1)C2=O | inactive: -5.95%
Cn1c2c(c(=O)[nH]c1=O)C(c1ccc(O)cc1)C1=C(N2)c2ccccc2C1=O (stereo not drawn) | inactive: -11.6%
CC1(C)C2CCC1(C)C(OC(=O)CCn1ccnc1)C2 (stereo not drawn) | inactive: 6.23%
CC[C@@H](C(=O)[C@@H](C)[C@@H](O)[C@H](C)CCc1ccc(C)c(O)c1C(=O)O)[C@H]1O[C@](CC)([C@H]2CC[C@](O)(CC)[C@H](C)O2)C[C@@H]1C | inactive: -5.32%
COc1cc(/C=C2\SC(=O)N(c3ccc(Cl)cc3)C2=O)cc([N+](=O)[O-])c1O | inactive: -1.95%
CC(C)CC(=O)NC(NC(=S)Nc1sc2c(c1C#N)CCCC2)C(Cl)(Cl)Cl (stereo not drawn) | inactive: -1.19%
CCCCn1c(NC(=O)c2ccccc2Cl)c(C#N)c2nc3ccccc3nc21 | inactive: -2.9%
CC(C)C(NC(=O)Cc1ccccc1)C(=O)N1CCN(c2cccc(Cl)c2)CC1 (stereo not drawn) | inactive: 3.45%
CCOc1ccc(CCNC(=O)c2ccc3c(=O)[nH]c4c(C(=O)NC(C)C)sc(=S)n4c3c2)cc1 | inactive: -4.84%
CC(C)N(C(=O)Cn1c(-c2cccnc2)ccc(C#N)c1=O)C(C)C | inactive: 1.02%
COc1ccc(-c2cc(C3CCN(c4cc(Cl)nc(N)n4)CC3)[nH]n2)cc1 | inactive: -6.08%
CC(=O)N(C)c1ccc(N=NC2C(=O)N(C(N)=S)N=C2C)cc1 (stereo not drawn) | inactive: -1.04%

Structure (SMILES) | activity change, negative = inhibition
CN(CC(=O)Nc1ccccc1C(F)(F)F)Cc1c(O)ccc2ccccc12 | inactive: 2.15%
CCOCCCNC(=O)C(NC(=O)c1ccc(=O)[nH]c1)c1ccc(Cl)cc1 (stereo not drawn) | inactive: 6.09%
COc1cc(/C=C(\C#N)c2nc3ccccc3s2)cc([N+](=O)[O-])c1O | inactive: -6.23%
Cc1ccc(C(=O)Nc2cccc([N+](=O)[O-])c2)cc1S(=O)(=O)Nc1ccc(NC(=O)c2ccccc2)cc1 | inactive: 3.31%
O=C1NC(=S)S/C1=C\c1ccc(SCc2ccccc2)o1 | inactive: -2.03%
CCCCS(=O)(=O)/C=C\C=C/S(=O)(=O)CCCC | inactive: -9.59%
O=C(Cn1ncc(Cl)c(Cl)c1=O)N1CCN(S(=O)(=O)c2ccc3ccccc3c2)CC1 | inactive: 3.05%
COc1ccc(S(=O)(=O)NCCc2cn3nc(C)c(C)nc3n2)cc1F | inactive: 4.11%
Cc1ccccc1NC(=O)c1cc2ccccn2n1 | inactive: 3.59%
CC(C)(C)C(=O)NC(NC(=S)Nc1sc2c(c1C#N)CCCC2)C(Cl)(Cl)Cl (stereo not drawn) | inactive: -2.81%
O=C(Nc1ncc(S(=O)(=O)c2ccc([N+](=O)[O-])cc2)s1)c1cccc2ccccc12 | inactive: -6.94%
Nc1nc(SCC(=O)C23CC4CC(CC(C4)C2)C3)n[nH]1 | inactive: 2.65%
COc1cc(C(=S)N2CCCC2)ccc1OCc1ccc(C)cc1 | inactive: 2.76%
COc1ccc(-c2csc(NC(=O)c3ccccc3NS(=O)(=O)c3ccc(F)c(F)c3)n2)cc1 | inactive: -4.14%
COc1ccc(NC(=O)Cc2nc3ccccc3[nH]2)cc1 | inactive: 5.8%
Cc1ccc(CSCCNC(=O)c2ccc(N(C)S(=O)(=O)c3ccccc3)cc2)cc1 | inactive: -7.18%
Cc1ccc(NC(=O)CSc2nc3ncc(Br)cc3[nH]2)cc1C | inactive: 3.71%
O=C(CC1C(=O)NCCN1Cc1cccc(F)c1F)NCCCC1CCCC1 (stereo not drawn) | inactive: 5.04%
Cc1cc(C(=O)COC(=O)c2ccc(O)cc2O)c(C)n1-c1ccccc1 | inactive: -6.58%
CC(C)Nc1ncnc2c1nnn2Cc1ccccc1 | inactive: 4.9%
O=C(Cn1cnc2ccccc21)Nc1ccc2c(c1)OCCCO2 | inactive: 1.89%
CCCSc1nsc(NC(=O)Nc2ccc(F)cc2F)n1 | inactive: -9.12%
Cc1c(N=Nc2c(-c3ccc([N+](=O)[O-])cc3)[nH]n(C(N)=S)c2=O)cccc1[N+](=O)[O-] | inactive: -8.79%
O=S(=O)(Nc1ccc(O)c(Sc2nc3ccccc3s2)c1)c1cccc2ccccc12 | inactive: 4%
COc1ccc(-n2ncc3c(N(C)C4CCCCC4)ncnc32)cc1 | inactive: -4.15%

Structure (SMILES) | activity change, negative = inhibition
CCc1ccccc1NC(=O)CN1CCN(C(=O)CNC(=O)Cc2cccc3ccccc23)CC1 | inactive: -1.42%
NS(=O)(=O)c1ccc(CCNC(=O)c2cc3ccccc3s2)cc1 | inactive: 4.07%
CCc1nnc(NS(=O)(=O)c2ccc(NC(=O)COc3ccc4ccccc4c3)cc2)s1 | inactive: 2.91%
Cc1ccc(-c2csc(N(CCO)CCCn3c(C(F)(F)F)nc4ccccc43)n2)cc1 | inactive: -1.09%
CCOC(=O)c1[nH]c2cc(OC)c(OC)cc2c1NC(=O)c1ccc2c(c1)OCO2 | inactive: -2.56%
N#Cc1nc(Cc2cccc3ccccc23)oc1NCc1ccc2c(c1)OCO2 | inactive: -0.416%
CCN(c1ccc(OC)cc1)S(=O)(=O)c1cc(-c2cc(C)no2)ccc1C(C)C | inactive: -0.725%
O=S(=O)(Nc1cc(Cl)ccc1-n1cncn1)c1cc(Br)ccc1Br | inactive: -8.15%
CC1CCc2c(sc(NC(=O)c3ccco3)c2C(=O)O)C1 (stereo not drawn) | inactive: -9.53%
Cc1ccc(NC(=O)c2cccc(OCc3c(C)noc3C)c2)cc1S(=O)(=O)Nc1ccccc1Cl | inactive: -4.87%
Cc1ccc(-c2nnc(SCC(=O)NC3CCCC3)n2C)cc1 | inactive: 0.0639%
Cc1c(Cl)sn(-c2ccc(Cl)cc2)c1=O | inactive: -6.46%
COCCNC(=O)CN1C(=O)c2cccc3cccc1c23 | inactive: 5.65%
CC(C)C(C)NC(=O)COc1ccc(Sc2ccc(OCC(=O)NC(C)C(C)C)cc2)cc1 (stereo not drawn) | inactive: -0.802%
O=C1CCCN1c1ccc(S(=O)(=O)Oc2ccc(Cl)cc2)cc1[N+](=O)[O-] | inactive: -5%
COc1ccc(S(=O)(=O)N2CCOC23CCN(C(=O)c2ccc(Cl)cc2Cl)CC3)cc1 | inactive: -0.861%
O=C(NCCCCc1ccccc1)NC[C@@H]1CC[C@@H](Cc2ccc(-c3ccccc3)cc2)O1 | inactive: -0.99%
COc1cccc(CN(C)C(=O)c2ccc(OCC(=O)Nc3cccc(C(F)(F)F)c3)c(OC)c2)c1 | inactive: -2.52%
Oc1ccc(Cl)cc1Cc1cc(Cl)ccc1O | inactive: 0.71%
Cc1ccc(CNC(=O)c2ccccc2NS(=O)(=O)c2ccc(Cl)nc2)cc1 | inactive: 3.12%
CN(Cc1ccccc1Cl)C(=O)c1cc2ccccc2o1 | inactive: -0.037%
CN(C(=O)CN1C(=O)/C(=C/c2ccccc2Cl)SC1=S)C1CCS(=O)(=O)C1 (stereo not drawn) | inactive: 0.836%
COc1ccc(OC)c(C2=NOC(C(=O)NCC3CCCO3)C2)c1 (stereo not drawn) | inactive: 5.95%
O=C(NCCC1=CCCCC1)C(=O)NCC1OCCCN1S(=O)(=O)c1ccccc1 (stereo not drawn) | inactive: 3.03%
COc1cccc(CNC(=O)CCCC(=O)NC(C)CCc2ccccc2)c1 (stereo not drawn) | inactive: 0.179%

Pulled one by one from above, 6 records:
Structure (SMILES) | activity change, negative = inhibition
O=C1CCCN1c1ccc(S(=O)(=O)Oc2ccc(Cl)cc2)cc1[N+](=O)[O-] | inactive: -5%
Cc1c(Cl)sn(-c2ccc(Cl)cc2)c1=O | inactive: -6.46%
CCOC(=O)c1[nH]c2cc(OC)c(OC)cc2c1NC(=O)c1ccc2c(c1)OCO2 | inactive: -2.56%
O=C(NCCCCc1ccccc1)NC[C@@H]1CC[C@@H](Cc2ccc(-c3ccccc3)cc2)O1 | inactive: -0.99%
Oc1ccc(Cl)cc1Cc1cc(Cl)ccc1O | inactive: 0.71%
NS(=O)(=O)c1ccc(CCNC(=O)c2cc3ccccc3s2)cc1 | inactive: 4.07%

Next records:

Structure (SMILES) | activity change, negative = inhibition
COc1ccc(N2CCN(C(c3nnnn3CCc3ccccc3)C(C)C)CC2)cc1 (stereo not drawn) | inactive: -0.513%
Cc1ccc(-c2nc3ccc(C(=O)O)cc3nc2-c2ccc(C)cc2)cc1 | inactive: -2.47%
CCC1CCCCN1S(=O)(=O)c1ccc(NC(=O)c2nc(S(C)(=O)=O)ncc2Cl)cc1 (stereo not drawn) | inactive: -9.43%
CCCNc1c(NS(=O)(=O)c2ccc(Br)cc2)c(=O)oc2ccccc12 | inactive: 3.82%
COc1ccccc1C1CCN(c2cc(O)ccc2[N+](=O)[O-])CC1 | inactive: 0.193%
CCOC(=O)c1c(NC(=O)CN2C(=O)NC(C)(c3ccc(OC(F)F)cc3)C2=O)sc(C)c1C (stereo not drawn) | inactive: 1.99%
Cc1ccc(NC(=O)CCc2nnc3ccc(NCc4ccco4)nn23)nc1 | inactive: 6.29%
COc1ccc(Cl)cc1NC(=O)C1CCN(C(=O)C2CC(=O)N(c3ccc(C)cc3)C2)CC1 (stereo not drawn) | inactive: 3.1%
O=C(NNC(=O)c1n[nH]c(=O)c2ccccc12)c1ccc(Br)cc1 | inactive: 0.78%
CC(=O)N1c2ccc(S(=O)(=O)N(C)CC(=O)N(C)Cc3ccccc3)cc2CC1C (stereo not drawn) | inactive: 5.15%
Cc1ccc(S(=O)(=O)NCCNc2ccc([N+](=O)[O-])cc2)cc1 | inactive: 1.78%
COc1cc(OC)c(NC(=O)Cn2cnc3sc(C)c(S(=O)(=O)N4CCOCC4)c3c2=O)cc1Cl | inactive: 0.564%
COC(=O)CN(c1ccc(C)cc1)S(=O)(=O)c1ccc2c(c1)n(C)c(=O)c(=O)n2C | inactive: 3.7%
O=C(COC(=O)C12CC3CC(CC(Br)(C3)C1)C2)Nc1cccc(S(=O)(=O)N2CCOCC2)c1 | inactive: -3.32%
CCOc1ccc(CNC(=O)CCCn2nc(CC)n3c(cc4occc43)c2=O)cc1 | inactive: 3.35%
O=S(=O)(NCc1csc(-c2ccccc2)n1)c1ccc(Cl)s1 | inactive: 3.27%
COc1cc(/C=C(\C#N)c2ccccn2)ccc1OCc1ccc(Cl)cc1 | inactive: -3.7%
CCC1Sc2ccc(S(=O)(=O)CCC(=O)Nc3ccccc3Cl)cc2NC1=O (stereo not drawn) | inactive: 2.79%
COC(=O)c1ccc(CN2C(=O)NC(Cc3c[nH]c4ccccc34)C2=O)cc1 (stereo not drawn) | inactive: 2.98%
Cc1ccc(C(=O)NCCNc2ncc(C(F)(F)F)cc2Cl)cc1[N+](=O)[O-] | inactive: 2.51%
Cc1ccc(S(=O)(=O)Oc2ccc(/C=C(/NC(=O)c3ccccc3)C(=O)Nc3ccccc3)cc2)cc1 | inactive: 1.91%
O=S(=O)(c1ccc(Cl)cc1)N1CCN(c2ncnc3sccc23)CC1 | inactive: -4.26%
Brc1ccc(CNc2ccc3ncccc3c2)cc1 | inactive: 0.294%
